# PubChem BioAssay AID686943, Drosophila RNAi Screening Center | 2013
# Assay: 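Knockdowns that increase or decrease active ERK after insulin receptor stimulation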 (primary screen)
# System: Drosophila S2R+ haemocyte-like cells expressing YFP-tagged ERK (Rolled)
# Reagents: long dsRNA against Drosophila genes
# Conditions: insulin stimulation versus unstimulated cells; dose and duration not given
# Measurement: 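Antibody staining for doubly phosphorylated ERK divided by ERK-YFP signal, as plate z-scores, in insulin-treated and untreated cells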
# Reading the numbers: replicate 1, z-score of dpERK with insulin: higher = more active ERK per ERK-YFP after insulin
# The screen tested about 23,000 reagents; this is an unselected part of those with a known target gene and a result. 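Extra replicates exist only for a retested subset of genes; insulin dose and duration not given; both raised and lowered dpERK matter.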 Reagents against one gene are numbered here. Names joined by + are all predicted targets of the reagent. Not all columns of the deposit are shown. Not stated in the record: the amount of reagent, the time to read-out.
predicted target,reagent,"replicate 1, z-score of dpERK with insulin"
CG14857,1,-0.02
CG1172 + Or83a,1,-0.17
E(spl)m8-HLH,1,0.03
Ugt303B1,1,0.54
Rcd4,1,0.44
CG2120,1,0.03
CG6511,1,-0.36
Unc-115a,1,-0.41
CG34049,1,1.03
CG2003,1,0.59
CG4734,1,1.82
CG4734,2,0.71
CG4815,1,-0.32
ERp60,1,0.11
asRNA:CR43470 + CG14830,1,0.11
CG17959,1,-0.09
sti,1,-0.54
sti,2,-0.33
CG4645,1,0.12
Sbf,1,-0.74
clt,1,0.32
PGRP-SB1,1,-0.36
CG32486,1,-0.18
CG32486,2,-0.85
Dhit,1,0.01
UbcE2M,1,0.75
spen,1,1.28

The list goes on, starting with the last 10 of the part before.
predicted target,reagent,"replicate 1, z-score of dpERK with insulin"
sti,2,-0.33
CG4645,1,0.12
Sbf,1,-0.74
clt,1,0.32
PGRP-SB1,1,-0.36
CG32486,1,-0.18
CG32486,2,-0.85
Dhit,1,0.01
UbcE2M,1,0.75
spen,1,1.28
CG31200,1,-0.22
kcc,1,0.45
kcc,2,-0.44
CG1077,1,1.1
c-cup,1,0.19
PMCA,1,0
PMCA,2,0.62
PMCA,3,-0.95
nol,1,-0.03
E2f1,1,-0.45
CG14258,1,-0.7
CG7367,1,-0.7
CtBP,1,-1.55
rogdi,1,0.6
lap,1,0.61
CG18662,1,-0.41
Vha36-1,1,-0.16
her,1,-0.28
myd,1,2.02
myd,2,0.79
CG12017,1,-0.23
CG13029,1,1.56
Rab9Db + Rab9Fa,1,0.66
Mst77F,1,0.83
synr,1,0.52
ReepA,1,-0.26
ReepA,2,0.02
milt,1,1.33
milt,2,1.09
milt,3,0.74
CG42525,1,-0.16
CG17202,1,-1.48
net,1,0.89
CG43736,1,-0.62
CG43736,2,1.21
CG1371,1,0.79
Atg2,1,-0.44
Cap-H2,1,-0.12
Vm26Ab,1,0.3
CG43100 (retired record),1,0.59
ATP8 (retired record),1,0.2
CG18302,1,-0.13
Spn53F,1,0.23
scrt,1,-4.33
shtd,1,-0.57
fkh,1,-0.06
